This is an account of results in PubChem BioAssay AID2685 (National Center for Advancing Translational Sciences (NCATS), 2010).

Some of the results follow. These are further read-outs of the screen, such as a control signal, another cell line or another target. No call is given for them. The list favours compounds with an active or inconclusive main result. The note in brackets gives the kind of curve behind each potency; many fits are weak.

The assay can be described thus: qHTS Assay for Lipid Storage Modulators in Drosophila S3 Cells.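 As to cell number change: cells counted by Cell Tracker Red CMTPX staining in the red channel.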 The following applies: BODIPY lipid droplet fluorescence, 18-24 h; for cell number change: measured here: cell count max response, cells fed with added oleic acid. Put shortly:
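Laser-scanning cytometry quantifies lipid droplet accumulation (500–530 nm total intensity; droplet/cell object ratio) in oleic acid-fed (400 uM added) Drosophila S3 cells treated with a concentration series. 20 uM Triacsin C defined 100% inhibition.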

Where [1] appears, read: measured here: cell number channel AC50, cells fed with added oleic acid.
Setting [2] is: measured here: lipid fluorescence (Fed channel) AC50, cells fed with added oleic acid.

On to `CCN1CNC(=S)N(c2cccc(C)c2C)C1`, for which the cell number change was determined as 1.92%.

For orientation: AC50 means the concentration giving half of the maximal activity seen. Read a low AC50 as greater potency. With `O=C(NCCN1CCOCC1)C1CCC(CNS(=O)(=O)c2ccc(Cl)cc2)CC1` (configuration not stated), the cell number change is -21.1%. The AC50 under setting [1] was 0.0517 µM [falling, full curve, poor fit].

As for `CCC(=O)Nc1cc2[nH]c(=O)cc(C)c2cc1C`, the cell number change is -12.6%. The AC50 under setting [1] was 0.291 µM [falling, partial curve, poor fit]. Besides, under setting [2], the AC50 is 0.461 µM [falling, full curve].

In the case of `COc1ccc(C)cc1NC(=O)C(OC(=O)c1cnc(C)cn1)c1ccccc1` (configuration not stated), the cell number change amounted to 21.8%. Under setting [2], the AC50 was 1.84 µM [rising, partial curve].

`Cc1sc(NC(=O)c2ccco2)c(CN2CCN(c3ccccn3)CC2)c1C`: the cell number change was -0.972%. For the same compound, the AC50 under setting [2] was 0.731 µM [falling, full curve, poor fit].

Regarding `Cc1ccc(C(=O)NC2CCS(=O)(=O)C2)cc1S(=O)(=O)N1CCCCCC1` (configuration not stated), the cell number change was -31.7%. The AC50 under setting [1] was 25.9 µM [falling, single point].

For `CCN(CCCNC(=O)CCCN1C(=O)COc2ccc(C)cc21)c1cccc(C)c1`, the cell number change is -15.1%. Further, the AC50 under setting [2] is 8.2 µM [rising, partial curve, poor fit].

Consider `CCOc1ccc(CNC(=O)CN2C(=O)CSc3ccc(S(=O)(=O)N4CCOCC4)cc32)cc1OC`, for which the cell number change was -40.4%. For the same compound, under setting [1], the AC50 was 10.3 µM [falling, partial curve].

`CC(=O)Nc1ccc(NC(=O)C(C)OC(=O)CN(C)S(=O)(=O)c2ccc(Cl)cc2)cc1` (configuration not stated): the AC50 is, setting by setting: under setting [1], 1.84 µM [rising, partial curve, poor fit]; under setting [2], 0.259 µM [rising, full curve, poor fit].

For `COc1ccc(C2N(Cc3ccccc3)CC(=O)N2/N=C(\C)c2ccccc2)cc1` (configuration not stated), the cell number change is 23.9%. For the same compound, under setting [2], the AC50 was 16.4 µM [rising, single point].

For the compound `COc1ccc(S(=O)(=O)N2CCC(C(=O)NC3CC(C)(C)NC(C)(C)C3)CC2)cc1`, the cell number change was -11.2%. The AC50 under setting [2] is 3.66 µM [falling, single point].

Take `O=c1cc[nH]c2cccc(Cc3ccccc3)c12`: the cell number change turned out to be 5.17%. The AC50 under setting [2] is 0.0731 µM [falling, full curve, poor fit].

Regarding `COc1ccc(-c2cnnn2-c2ccc(NC(=O)c3ccc(S(=O)(=O)N4CCCCC4)cc3)cc2)cc1OC`, under setting [2], the AC50 was 0.13 µM [rising, full curve, poor fit].

Turning to `O=C(Nc1ccccc1)/C(=C/c1ccc(F)cc1)NC(=O)c1ccco1`, the cell number change is 21.7%.

Turning to `COc1cccc(C(=O)Nc2nnc(-c3ccccc3)s2)c1OC`, the cell number change was -16.7%. The AC50 under setting [2] was 2.59 µM [falling, full curve].

Regarding `O=C(CCC(=O)OCC(=O)c1ccccc1)NC1CCCCC1`, the cell number change came to 2.62%. Further, the AC50 under setting [2] is 10.3 µM [falling, single point].

Regarding `CC(C)CCNC(=O)CN(C(=O)Cn1nnc(-c2ccc(F)cc2)n1)C1CCCC1`, the cell number change was -10.8%. The AC50 under setting [2] is 0.184 µM [falling, full curve].

In the case of `O=C(/C=C/c1ccc(OC(F)F)cc1)OCC(=O)N1CCN(C(=O)c2ccco2)CC1`, the AC50 under setting [2] was 2.31 µM [falling, partial curve].

Take `CC1(CCBr)C(=O)N(c2ccccc2)c2ccccc21` (configuration not stated): the cell number change worked out at 2.19%. Under setting [2], the AC50 is 0.58 µM [rising, single point].

As for `O=C(COc1ccccc1)NCC(c1ccco1)N1CCN(c2ccccc2)CC1` (configuration not stated), the cell number change turned out to be 32.2%. In addition, under setting [1], the AC50 was 2.06 µM [rising, full curve]. Under setting [2], the AC50 was 29.1 µM [rising, single point].

Regarding `COc1cc2cc(CCOC(=O)CCCC(=O)O)oc(=O)c2cc1OC`, the cell number change is 13.9%. In addition, the AC50 under setting [1] is 1.16 µM [falling, single point]. For the same compound, under setting [2], the AC50 was 18.4 µM [rising, single point].

Turning to `O=C(CN(Cc1ccccc1)C(=O)CCC(=O)Nc1nccs1)NCc1ccc(F)cc1`, the cell number change turned out to be 3.91%. Moreover, the concentration at half-maximal activity (AC50) under setting [2] was 6.51 µM [falling, single point].

As for `CC(NC(=O)COC(=O)c1cc([N+](=O)[O-])ccc1N1CCOCC1)c1ccccc1` (configuration not stated), the cell number change was -20.2%. The AC50 under setting [2] is 29.1 µM [falling, single point].

In the case of `C/C(=C\C(=O)c1ccc(F)cc1)NCc1ccc2c(c1)OCO2`, the cell number change was -24.7%. Also, the AC50 under setting [2] is 32.6 µM [falling, single point].

Turning to `COc1ccc(N(CC(=O)NCc2ccccc2)C(=O)CCC(=O)Nc2cc(C)ccn2)c(OC)c1`, the cell number change is 0.747%. Moreover, under setting [2], the AC50 was 0.092 µM [rising, full curve, poor fit].

As to `CCOc1ccc(CCNC(=O)COC(=O)/C=C/c2ccc(OC(F)F)c(OC)c2)cc1OCC`, the cell number change is -73.9%. Under setting [1], the AC50 was 1.84 µM [falling, full curve]. Moreover, the AC50 under setting [2] was 7.31 µM [falling, partial curve].

Regarding `CCOC(=O)C1(Cc2ccccc2C)CCCN(C(=O)c2ccc(CSC)o2)C1` (configuration not stated), the cell number change is -19.9%.

`CN(c1ccccc1)S(=O)(=O)c1cccc(NC(=O)COc2ccccc2)c1`: the cell number change is -21.8%. Under setting [2], the AC50 was 1.46 µM [falling, full curve, poor fit].

Turning to `COc1ccc(S(=O)(=O)NC2CC2)cc1Cl`, the cell number change came to 10.2%.

With `CCN(CC)CCn1c2c(c(SCC(=O)Nc3ccc(C(C)C)cc3)nc1=O)CCC2`, the cell number change is -0.368%. In addition, under setting [2], the AC50 was 8.2 µM [falling, partial curve, poor fit].

On to `O=C(O)CSC1CC(=O)N(c2ccc(Cl)cc2)C1=O` (configuration not stated), for which the cell number change is -0.84%. Also, the AC50 under setting [2] is 0.0164 µM [falling, full curve].

`Cc1ccc(CNC(=O)Cn2ccc3ccccc3c2=O)o1`: the cell number change was 8.36%. Also, the AC50 under setting [1] was 0.82 µM [falling, full curve, poor fit]. Also, the AC50 under setting [2] was 0.731 µM [falling, full curve].

Take `Cc1ccc(CNC(=O)C(=O)NCC2OCCN2S(=O)(=O)c2ccc(Br)cc2)cc1` (configuration not stated): the cell number change was -19.6%. The AC50 under setting [2] is 32.6 µM [falling, single point].

Consider `Cc1nc2ccccn2c1C(=O)NCc1cccnc1`, for which the cell number change was determined as 11.1%. Besides, the AC50 under setting [2] is 29.1 µM [rising, single point].

For the compound `Cc1ccc(NC(=O)COC(=O)C2CCN(c3ccc(C(F)(F)F)cn3)CC2)cc1`, the cell number change was found to be 24.4%. For the same compound, the AC50 under setting [1] is 0.58 µM [rising, full curve, poor fit]. Under setting [2], the AC50 was 29.1 µM [rising, single point].

Consider `O=C1CC(c2ccco2)CC(O)=C1C=Nc1ccc(Br)cc1` (configuration not stated), for which the cell number change was -0.764%. The AC50 under setting [2] is 0.461 µM [falling, partial curve, poor fit].
